# These are yes or no findings as the source states them, for the method shown.
# By UniProt entry, the sequences of proteins in these tests, tags left out. Where a name states a change or a piece, a line headed by the entry shows the natural chain unless it says otherwise.
# UniProt P54784: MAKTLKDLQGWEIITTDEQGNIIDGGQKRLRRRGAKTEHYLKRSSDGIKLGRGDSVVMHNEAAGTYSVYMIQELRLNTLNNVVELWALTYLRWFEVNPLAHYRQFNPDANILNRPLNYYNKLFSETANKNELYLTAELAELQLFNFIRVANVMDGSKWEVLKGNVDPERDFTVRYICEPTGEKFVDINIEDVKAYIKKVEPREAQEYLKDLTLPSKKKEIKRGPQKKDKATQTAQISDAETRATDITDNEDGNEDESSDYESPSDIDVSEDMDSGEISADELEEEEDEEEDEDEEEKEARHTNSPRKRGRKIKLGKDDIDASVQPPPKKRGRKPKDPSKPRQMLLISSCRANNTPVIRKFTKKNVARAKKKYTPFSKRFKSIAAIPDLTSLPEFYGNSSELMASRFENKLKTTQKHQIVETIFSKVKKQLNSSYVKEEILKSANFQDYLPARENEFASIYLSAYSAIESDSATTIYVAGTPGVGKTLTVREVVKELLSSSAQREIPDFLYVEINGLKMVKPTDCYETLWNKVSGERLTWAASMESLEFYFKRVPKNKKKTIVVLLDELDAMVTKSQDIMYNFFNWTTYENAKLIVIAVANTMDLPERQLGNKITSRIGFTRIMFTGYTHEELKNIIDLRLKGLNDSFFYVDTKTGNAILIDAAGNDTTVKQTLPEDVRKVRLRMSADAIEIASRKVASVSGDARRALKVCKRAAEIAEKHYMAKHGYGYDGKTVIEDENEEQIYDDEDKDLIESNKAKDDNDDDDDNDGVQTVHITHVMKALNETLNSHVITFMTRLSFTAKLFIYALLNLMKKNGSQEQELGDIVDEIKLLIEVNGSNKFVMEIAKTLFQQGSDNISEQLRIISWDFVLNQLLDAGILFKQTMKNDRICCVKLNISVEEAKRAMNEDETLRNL
# UniProt P53091: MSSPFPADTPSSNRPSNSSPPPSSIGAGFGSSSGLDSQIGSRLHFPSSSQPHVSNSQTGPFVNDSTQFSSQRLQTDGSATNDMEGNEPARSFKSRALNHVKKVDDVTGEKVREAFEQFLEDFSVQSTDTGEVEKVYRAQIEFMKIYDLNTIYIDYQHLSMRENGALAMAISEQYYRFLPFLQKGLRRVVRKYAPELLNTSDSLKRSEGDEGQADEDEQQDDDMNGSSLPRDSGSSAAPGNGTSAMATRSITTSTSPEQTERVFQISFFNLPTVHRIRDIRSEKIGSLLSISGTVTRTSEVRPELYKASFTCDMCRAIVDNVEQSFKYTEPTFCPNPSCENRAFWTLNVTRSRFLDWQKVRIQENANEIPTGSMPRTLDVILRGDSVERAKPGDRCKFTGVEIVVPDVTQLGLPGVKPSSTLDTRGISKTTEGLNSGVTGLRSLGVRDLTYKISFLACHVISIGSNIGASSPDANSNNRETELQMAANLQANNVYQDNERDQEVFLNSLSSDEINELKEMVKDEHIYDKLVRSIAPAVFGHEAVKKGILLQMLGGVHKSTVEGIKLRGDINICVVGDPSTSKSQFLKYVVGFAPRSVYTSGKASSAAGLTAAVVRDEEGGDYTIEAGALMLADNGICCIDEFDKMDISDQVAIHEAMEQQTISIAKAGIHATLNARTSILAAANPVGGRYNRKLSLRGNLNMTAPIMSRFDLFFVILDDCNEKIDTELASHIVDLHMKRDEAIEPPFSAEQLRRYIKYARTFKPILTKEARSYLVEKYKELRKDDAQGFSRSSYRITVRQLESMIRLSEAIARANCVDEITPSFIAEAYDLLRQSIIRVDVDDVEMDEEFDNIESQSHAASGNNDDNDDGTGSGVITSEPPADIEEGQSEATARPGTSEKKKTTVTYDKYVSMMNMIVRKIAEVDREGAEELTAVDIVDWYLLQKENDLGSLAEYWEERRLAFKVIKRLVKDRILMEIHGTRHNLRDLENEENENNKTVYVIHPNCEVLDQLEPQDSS
# Biological target: ORC-Cdc6 complex bound to duplex DNA (OC) (S. cerevisiae) (UniProt P54784)
# Assay: pull-down; preRC recruitment assay: OC (50 nM ORC, 50 nM Cdc6) formed on ARS305 DNA on streptavidin magnetic beads; one Mcm subunit or Cdt1 at 250 nM with or without Mcm3; ATPγS, 30 °C, 20 min, low salt washes (300 mM KOAc); SDS-PAGE; both purified
substance,measurement,value
Mcm6 (from UniProt P53091 1-1017),binding,no binding (tested: 250 nM)

# Source: paper PMC7979726 (Nature Communications, 2021)
